The source gives many values for each of these; only a part stands here.
Tests used:
Type in all cases: cell-based
Details in all cases: U-87MG ATCC
[1] = Inhibition of RTK assessed as Inhibition of RTK/PI3K/AKT/mTOR signaling in human U87 cells assessed as down regulation of FOS gene expression at cytotoxic IC50 measured after 48 hrs relative to control
[2] = Inhibition of RTK/PI3K/AKT/mTOR signaling in human U87 cells assessed as down regulation of LUCAT1 gene expression at cytotoxic IC50 measured after 48 hrs relative to control
[3] = Inhibition of RTK/PI3K/AKT/mTOR signaling in human U87 cells assessed as down regulation of SVIP gene expression at cytotoxic IC50 measured after 48 hrs relative to control
[4] = Inhibition of RTK/PI3K/AKT/mTOR signaling in human U87 cells assessed as down regulation of AP4B1 gene expression at cytotoxic IC50 measured after 48 hrs relative to control
[5] = Inhibition of RTK/PI3K/AKT/mTOR signaling in human U87 cells assessed as down regulation of THBS1 gene expression at cytotoxic IC50 measured after 48 hrs relative to control
[6] = Inhibition of RTK/PI3K/AKT/mTOR signaling in human U87 cells assessed as down regulation of PCSK5 gene expression at cytotoxic IC50 measured after 48 hrs relative to control
[7] = Inhibition of RTK/PI3K/AKT/mTOR signaling in human U87 cells assessed as down regulation of SMC4 gene expression at cytotoxic IC50 measured after 48 hrs relative to control
[8] = Inhibition of RTK/PI3K/AKT/mTOR signaling in human U87 cells assessed as down regulation of ATXN1L gene expression at cytotoxic IC50 measured after 48 hrs relative to control
[9] = Inhibition of RTK/PI3K/AKT/mTOR signaling in human U87 cells assessed as down regulation of FBXO33 gene expression at cytotoxic IC50 measured after 48 hrs relative to control
[10] = Inhibition of RTK/PI3K/AKT/mTOR signaling in human U87 cells assessed as down regulation of FRS2 gene expression at cytotoxic IC50 measured after 48 hrs relative to control
[11] = Inhibition of RTK/PI3K/AKT/mTOR signaling in human U87 cells assessed as down regulation of VPS4B gene expression at cytotoxic IC50 measured after 48 hrs relative to control
[12] = Inhibition of RTK/PI3K/AKT/mTOR signaling in human U87 cells assessed as down regulation of OGDH gene expression at cytotoxic IC50 measured after 48 hrs relative to control
[13] = Inhibition of RTK/PI3K/AKT/mTOR signaling in human U87 cells assessed as down regulation of C5orf51 gene expression at cytotoxic IC50 measured after 48 hrs relative to control
[14] = Inhibition of RTK/PI3K/AKT/mTOR signaling in human U87 cells assessed as down regulation of MKI67 gene expression at cytotoxic IC50 measured after 48 hrs relative to control
[15] = Inhibition of RTK/PI3K/AKT/mTOR signaling in human U87 cells assessed as down regulation of S100A11 gene expression at cytotoxic IC50 measured after 48 hrs relative to control
[16] = Inhibition of RTK/PI3K/AKT/mTOR signaling in human U87 cells assessed as down regulation of SMC1A gene expression at cytotoxic IC50 measured after 48 hrs relative to control
[17] = Inhibition of RTK/PI3K/AKT/mTOR signaling in human U87 cells assessed as down regulation of PHC2 gene expression at cytotoxic IC50 measured after 48 hrs relative to control
[18] = Inhibition of RTK/PI3K/AKT/mTOR signaling in human U87 cells assessed as up regulation of USH1G gene expression at cytotoxic IC50 measured after 48 hrs relative to control
[19] = Inhibition of RTK/PI3K/AKT/mTOR signaling in human U87 cells assessed as up regulation of ASS1 gene expression at cytotoxic IC50 measured after 48 hrs relative to control
[20] = Inhibition of RTK/PI3K/AKT/mTOR signaling in human U87 cells assessed as up regulation of OLFM2 gene expression at cytotoxic IC50 measured after 48 hrs relative to control
[21] = Inhibition of RTK/PI3K/AKT/mTOR signaling in human U87 cells assessed as up regulation of KCNQ4 gene expression at cytotoxic IC50 measured after 48 hrs relative to control
[22] = Inhibition of RTK/PI3K/AKT/mTOR signaling in human U87 cells assessed as up regulation of THO complex 6 gene expression at cytotoxic IC50 measured after 48 hrs relative to control
[23] = Inhibition of RTK/PI3K/AKT/mTOR signaling in human U87 cells assessed as up regulation of zinc finger protein 219 gene expression at cytotoxic IC50 measured after 48 hrs relative to control
[24] = Inhibition of RTK/PI3K/AKT/mTOR signaling in human U87 cells assessed as up regulation of RNA guanine-7 methyltransferase gene expression at cytotoxic IC50 measured after 48 hrs relative to control
[25] = Inhibition of RTK/PI3K/AKT/mTOR signaling in human U87 cells assessed as up regulation of ADP ribosylation factor like GTPase 5A gene expression at cytotoxic IC50 measured after 48 hrs relative to control
[26] = Inhibition of RTK/PI3K/AKT/mTOR signaling in human U87 cells assessed as up regulation of sperm specific antigen 2 gene expression at cytotoxic IC50 measured after 48 hrs relative to control
[27] = Inhibition of RTK/PI3K/AKT/mTOR signaling in human U87 cells assessed as up regulation of caveolin 2 gene expression at cytotoxic IC50 measured after 48 hrs relative to control
[28] = Inhibition of RTK/PI3K/AKT/mTOR signaling in human U87 cells assessed as up regulation of SLC50A1 gene expression at cytotoxic IC50 measured after 48 hrs relative to control
[29] = Inhibition of RTK/PI3K/AKT/mTOR signaling in human U87 cells assessed as up regulation of INF2 gene expression at cytotoxic IC50 measured after 48 hrs relative to control
[30] = Inhibition of RTK/PI3K/AKT/mTOR signaling in human U87 cells assessed as up regulation of RPL3 gene expression at cytotoxic IC50 measured after 48 hrs relative to control
[31] = Inhibition of RTK/PI3K/AKT/mTOR signaling in human U87 cells assessed as up regulation of SEC61A1 gene expression at cytotoxic IC50 measured after 48 hrs relative to control
[32] = Inhibition of RTK/PI3K/AKT/mTOR signaling in human U87 cells assessed as up regulation of CDC42EP1 gene expression at cytotoxic IC50 measured after 48 hrs relative to control

## CC(=O)C(=NNc1ccccc1C#N)C(C)=O
[1]
  log2FC: -1.93
[2]
  log2FC: -2.23
[3]
  log2FC: -1.98
[4]
  log2FC: -1.73
[5]
  log2FC: -1.45
[6]
  log2FC: -1.33
[7]
  log2FC: -1
[8]
  log2FC: -0.972
[9]
  log2FC: -0.934
[10]
  log2FC: -0.829
[11]
  log2FC: -0.672
[12]
  log2FC: -0.668
[13]
  log2FC: -0.662
[14]
  log2FC: -0.555
[15]
  log2FC: -0.48
[16]
  log2FC: -0.449
[17]
  log2FC: -0.367
[18]
  log2FC: 2.27
[19]
  log2FC: 1.81
[20]
  log2FC: 1.75
[21]
  log2FC: 1.72
[22]
  log2FC: 1
[23]
  log2FC: 0.962
[24]
  log2FC: 0.959
[25]
  log2FC: 0.854
[26]
  log2FC: 0.854
[27]
  log2FC: 0.78
[28]
  log2FC: 0.597
[29]
  log2FC: 0.588
[30]
  log2FC: 0.539
[31]
  log2FC: 0.53
[32]
  log2FC: 0.5

— ChEMBL document CHEMBL4316593 (Eur J Med Chem, 2019)
